In publication PMC6854512:
Results are given in words; binding and its absence hold for the method and conditions named. In cells and extracts the contact can be indirect. Some binding calls cover weakened binding; strength is not graded here.

Sequences of proteins named here, by UniProt entry; tags and fusion partners are left off. A line that says so, or that is headed by a name, gives the form on record, which may keep a tag or linker. Residues count along the entry.
LASV GP1, receptor binding subunit, cleaved from the tagged LASV GP (P08669, residues 59-259): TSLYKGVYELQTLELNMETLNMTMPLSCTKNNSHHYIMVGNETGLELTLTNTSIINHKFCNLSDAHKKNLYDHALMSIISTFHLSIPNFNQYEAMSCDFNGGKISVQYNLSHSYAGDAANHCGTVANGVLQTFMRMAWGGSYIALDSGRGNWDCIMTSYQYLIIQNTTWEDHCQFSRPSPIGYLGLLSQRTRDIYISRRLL
UniProt P08669, residues 260-491: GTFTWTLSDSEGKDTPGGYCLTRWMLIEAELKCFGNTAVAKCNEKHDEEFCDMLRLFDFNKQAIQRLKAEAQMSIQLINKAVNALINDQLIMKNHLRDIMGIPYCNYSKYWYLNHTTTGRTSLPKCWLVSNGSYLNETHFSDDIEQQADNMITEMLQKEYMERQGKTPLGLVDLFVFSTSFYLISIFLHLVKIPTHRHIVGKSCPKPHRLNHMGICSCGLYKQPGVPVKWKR

Target: LASV GP2, membrane fusion subunit, cleaved from the tagged LASV GP, with the C-terminal Twin-Strep-tag (Lassa virus (Josiah strain)) (UniProt P08669)
Assay: co-IP; […] (48 h; […], pH 8.0) […]

In the case of “LASV GP1, receptor binding subunit, cleaved from the tagged LASV GP (from UniProt P08669) (domain or fragment)”, the binding is reported as “binds”.
